From patent US20190345138A1, “HETEROCYCLIC AMIDES AS KINASE INHIBITORS” (GlaxoSmithKline Intellectual Property Development Limited, priority 2016, published 2019)
At least one read-out could not be matched to a standard name with certainty.

System: TNF-driven systemic inflammatory response syndrome model
Assay: TNF-driven systemic inflammatory response syndrome model (TNF/zVAD or TNF alone), temperature loss
Assay type: in vivo
Settings: 100 mg/kg PO, pre-dosed 15 minutes before i.v. mouse TNF alone or with zVAD
From the text: The efficacy of RIP1 inhibitors can be tested in mice in vivo using a TNF-driven systemic inflammatory response syndrome model (L. Duprez et al. Immunity 35(6):908-918, (2011)) using TNF plus the caspase inhibitor zVAD or TNF alone. The TNF/zVAD model is terminated at ˜3 hrs and the TNF alone model is terminated at ˜8 hrs (under IACUC guidelines for temperature loss). TNF (or TNF/zVAD) induced manifestations include temperature loss, the production of numerous cytokines (including IL-6, IL-1b, MIP1β and MIP2) in the periphery, liver and intestinal inflammation and an increase of markers of cellular (LDH and CK) and liver damage (AST and ALT) in the serum. Inhibition of these TNF alone or TNF/zVAD induced manifestations can be shown by PO pre-dosing with selected compounds. For example, mice (8 mice per group) were pre-dosed PO with vehicle or compound 15 minutes before i.v. administration of mouse TNF (30 μg/mouse) alone or in combination with zVAD (0.4 mg/mouse) simultaneously. Temperature loss in the mice was measured by rectal probe. The study was terminated when the control group lost 7 degrees, per our IACUC protocol. All data are shown as means±standard error of the mean.

## NC(=O)c1cc(N2CCC(C(=O)N3N=CC[C@H]3c3cncc(F)c3)CC2)ncn1 [Example 108, (S)-6-(4-(5-(5-fluoropyridin-3-yl)-4,5-dihydro-1H-pyrazole-1-carbonyl)piperidin-1-yl)pyrimidine-4-carboxamide]
  % Inhibition: 81%
